doi:10.1101/2022.08.22.504506
No constants are given. Whether binding was seen depends on the method and setting. For some assays here: Binding can be weak; no strength is given. For some assays here: Tags and fused reporters may be left off the sequences shown. For some assays here: In cells and extracts the contact can be indirect.

Experiments:
[1] = target: MpCBL-C-LgBiT (Marchantia polymorpha); test: split reporter
[2] = target: MpCBL-B-LgBiT (Marchantia polymorpha); test: split reporter
[3] = target: MpCBL-A-LgBiT (Marchantia polymorpha); test: split reporter
[4] = target: GAL4-BD-MpCBL-C (Marchantia polymorpha); test: two-hybrid
[5] = target: GAL4-BD-MpCBL-B (Marchantia polymorpha); test: two-hybrid

B1: SmBiT-AtCIPK24 (protein, UniProt Q9LDI3 1-446)
chain: MTKKMRRVGKYEVGRTIGEGTFAKVKFARNTDTGDNVAIKIMAKSTILKNRMVDQIKREISIMKIVRHPNIVRLYEVLASPSKIYIVLEFVTGGELFDRIVHKGRLEESESRKYFQQLVDAVAHCHCKGVYHRDLKPENLLLDTNGNLKVSDFGLSALPQEGVELLRTTCGTPNYVAPEVLSGQGYDGSAADIWSCGVILFVILAGYLPFSETDLPGLYRKINAAEFSCPPWFSAEVKFLIHRILDPNPKTRIQIQGIKKDPWFRLNYVPIRAREEEEVNLDDIRAVFDGIEGSYVAENVERNDEGPLMMNAFEMITLSQGLNLSALFDRRQDFVKRQTRFVSRREPSEIIANIEAVANSMGFKSHTRNFKTRLEGLSSIKAGQLAVVIEIYEVAPSLFMVDVRKAAGETLEYHKFYKKLCSKLENIIWRATEGIPKSEILRTITF
In the case of B1, the binding [1] is reported as “no binding”, the binding [2] is reported as “binds” and the binding [3] is reported as “binds”.

B2: GAL4-AD-AtCIPK24 (protein, UniProt Q9LDI3 1-446)
chain: MTKKMRRVGKYEVGRTIGEGTFAKVKFARNTDTGDNVAIKIMAKSTILKNRMVDQIKREISIMKIVRHPNIVRLYEVLASPSKIYIVLEFVTGGELFDRIVHKGRLEESESRKYFQQLVDAVAHCHCKGVYHRDLKPENLLLDTNGNLKVSDFGLSALPQEGVELLRTTCGTPNYVAPEVLSGQGYDGSAADIWSCGVILFVILAGYLPFSETDLPGLYRKINAAEFSCPPWFSAEVKFLIHRILDPNPKTRIQIQGIKKDPWFRLNYVPIRAREEEEVNLDDIRAVFDGIEGSYVAENVERNDEGPLMMNAFEMITLSQGLNLSALFDRRQDFVKRQTRFVSRREPSEIIANIEAVANSMGFKSHTRNFKTRLEGLSSIKAGQLAVVIEIYEVAPSLFMVDVRKAAGETLEYHKFYKKLCSKLENIIWRATEGIPKSEILRTITF
With B2 the binding [4] was “binds” and the binding [5] was “binds”.
